This passage reports binding results from article PMC10581371.

Sequences of proteins named here, by UniProt entry; tags and fusion partners are left off.
UniProt P22314: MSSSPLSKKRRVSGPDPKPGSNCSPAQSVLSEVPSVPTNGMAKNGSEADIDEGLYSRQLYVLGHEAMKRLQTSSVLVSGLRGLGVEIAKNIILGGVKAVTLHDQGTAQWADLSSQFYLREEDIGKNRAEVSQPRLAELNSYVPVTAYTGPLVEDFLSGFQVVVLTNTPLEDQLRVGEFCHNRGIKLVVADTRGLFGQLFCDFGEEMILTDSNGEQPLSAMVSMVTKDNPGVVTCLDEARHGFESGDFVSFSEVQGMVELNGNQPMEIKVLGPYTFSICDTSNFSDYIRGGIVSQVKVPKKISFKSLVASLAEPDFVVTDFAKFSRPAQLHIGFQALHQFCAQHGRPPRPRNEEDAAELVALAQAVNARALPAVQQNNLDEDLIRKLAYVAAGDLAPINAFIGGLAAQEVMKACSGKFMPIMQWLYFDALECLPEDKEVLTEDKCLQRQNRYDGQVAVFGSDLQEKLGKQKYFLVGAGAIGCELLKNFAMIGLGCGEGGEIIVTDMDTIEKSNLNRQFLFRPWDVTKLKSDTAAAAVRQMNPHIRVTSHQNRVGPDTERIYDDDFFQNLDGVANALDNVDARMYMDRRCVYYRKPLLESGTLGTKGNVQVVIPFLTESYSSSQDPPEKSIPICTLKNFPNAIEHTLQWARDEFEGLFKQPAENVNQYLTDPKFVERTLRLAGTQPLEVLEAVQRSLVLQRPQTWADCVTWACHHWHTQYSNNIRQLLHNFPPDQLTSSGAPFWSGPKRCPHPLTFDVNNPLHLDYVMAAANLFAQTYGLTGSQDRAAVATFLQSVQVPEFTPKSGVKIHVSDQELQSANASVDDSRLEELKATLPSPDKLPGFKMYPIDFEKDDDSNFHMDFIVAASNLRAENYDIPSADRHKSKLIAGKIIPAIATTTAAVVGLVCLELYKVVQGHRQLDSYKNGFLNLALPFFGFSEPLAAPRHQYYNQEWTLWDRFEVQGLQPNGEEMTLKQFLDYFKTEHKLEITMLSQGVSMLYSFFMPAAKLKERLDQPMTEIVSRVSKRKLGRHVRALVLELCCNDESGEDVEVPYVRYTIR

No constants are given. Whether binding was seen depends on the method and setting. Binding seen in cells or lysates may run through a third protein. Some entries that bind do so weakly or less than the wild type.

The target in the assay is UBA1 (UniProt P22314). Put plainly: co-IP; PC3 cells transfected with RBM15 and UBA1 plasmids; lysate incubated overnight at 4 °C with antibody on Dynabeads Protein G, washed 3 times with lysis buffer, bound proteins and 10% inputs detected by Western blots. (A western blot detects proteins with antibodies after separation by electrophoresis.)

B1: RBM15 (protein, UniProt Q96T37 1-977)
chain: MRTAGRDPVPRRSPRWRRAVPLCETSAGRRVTQLRGDDLRRPATMKGKERSPVKAKRSRGGEDSTSRGERSKKLGGSGGSNGSSSGKTDSGGGSRRSLHLDKSSSRGGSREYDTGGGSSSSRLHSYSSPSTKNSSGGGESRSSSRGGGGESRSSGAASSAPGGGDGAEYKTLKISELGSQLSDEAVEDGLFHEFKRFGDVSVKISHLSGSGSGDERVAFVNFRRPEDARAAKHARGRLVLYDRPLKIEAVYVSRRRSRSPLDKDTYPPSASVVGASVGGHRHPPGGGGGQRSLSPGGAALGYRDYRLQQLALGRLPPPPPPPLPRDLERERDYPFYERVRPAYSLEPRVGAGAGAAPFREVDEISPEDDQRANRTLFLGNLDITVTESDLRRAFDRFGVITEVDIKRPSRGQTSTYGFLKFENLDMSHRAKLAMSGKIIIRNPIKIGYGKATPTTRLWVGGLGPWVPLAALAREFDRFGTIRTIDYRKGDSWAYIQYESLDAAHAAWTHMRGFPLGGPDRRLRVDFADTEHRYQQQYLQPLPLTHYELVTDAFGHRAPDPLRGARDRTPPLLYRDRDRDLYPDSDWVPPPPPVRERSTRTAATSVPAYEPLDSLDRRRDGWSLDRDRGDRDLPSSRDQPRKRRLPEESGGRHLDRSPESDRPRKRHCAPSPDRSPELSSSRDRYNSDNDRSSRLLLERPSPIRDRRGSLEKSQGDKRDRKNSASAERDRKHRTTAPTEGKSPLKKEDRSDGSAPSTSTASSKLKSPSQKQDGGTAPVASASPKLCLAWQGMLLLKNSNFPSNMHLLQGDLQVASSLLVEGSTGGKVAQLKITQRLRLDQPKLDEVTRRIKVAGPNGYAILLAVPGSSDSRSSSSSAASDTATSTQRPLRNLVSYLKQKQAAGVISLPVGGNKDKENTGVLHAFPPCEFSQQFLDSPAKALAKSEEDYLVMIIVRGFGFQIGVRYENKKRENLALTLL
As for B1, the binding entry is “binds”.
